For 2 molecules, binding results are on record in paper doi:10.1101/2023.05.05.539554.

Where two headings read alike, the source gives them in different places. No constants are given. Whether binding was seen depends on the method and setting. Binding seen in cells or lysates may run through a third protein. A yes stands for co-enrichment or nearness to the bait. Other partners may have been found. Where a sequence is shown, tags or fusion partners need not be part of it.

Holding throughout (assay): proximity labelling
Experiment [1] concerns the target T1, LST8 fused to the promiscuous biotin ligase TurboID with a triple haemagglutinin (HA) tag, TID-LST8 (UniProt Q9LV27).
T1 sequence: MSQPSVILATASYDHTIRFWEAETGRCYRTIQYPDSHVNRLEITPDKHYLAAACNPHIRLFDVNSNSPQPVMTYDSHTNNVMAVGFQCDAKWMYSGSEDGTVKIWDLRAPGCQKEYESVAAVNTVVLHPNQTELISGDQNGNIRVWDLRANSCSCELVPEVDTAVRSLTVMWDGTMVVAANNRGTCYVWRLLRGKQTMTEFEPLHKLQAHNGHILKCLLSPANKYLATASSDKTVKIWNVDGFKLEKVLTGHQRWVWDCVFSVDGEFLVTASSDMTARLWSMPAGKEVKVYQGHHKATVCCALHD

The target of experiment [2] is T2, LST8 fused to the promiscuous biotin ligase TurboID with a triple haemagglutinin (HA) tag, LST8-TID (UniProt Q9LV27).
T2 sequence: T1 sequence

For experiment [3], the target named is T1, LST8 fused to the promiscuous biotin ligase TurboID with a triple haemagglutinin (HA) tag, TID-LST8. This is another data set of the same source.
The target is the same in experiment [4]. This is another data set of the same source.

For the molecule RSH3-GFP (from UniProt Q9SYH1) (enzyme), the binding entry in experiment [1], in experiment [2] and in experiment [3] was “binds” in each case.

B1: RSH3_(39-221)-GFP (domain or fragment, UniProt Q9SYH1 39-221)
chain: SSASSSTSSPTIGGLSLLFSGASVKSSSSSSSSHPSVGEELASIRHDRSEDRTLSGSFCYSPSKFIGSSYLKRDHQSPVSVLHGPISSGNSPPMRISRDRNLDGGSALRVGSSRLFNGFVRKAIGSCVDYDTDSVLVDEQLPFTMDDGFEGERRQPYARDLLRRAQLKHKIFEDESVIKAFYE
With B1, the binding result in experiment [4] is recorded as “binds”.
